Source: PubChem BioAssay AID493014 (National Center for Advancing Translational Sciences (NCATS), 2011)
Several values for one entry are separate records, joined by “and”; a condition that tells them apart may be missing. Equal entries are not always repeated. Screen size: about 340,000 compounds; about 170 (0.05%) were called active. Inconclusive means that the source gave no clear call. Such entries were picked first, then a sample of the others. The call rests on the fitted dose curve; in most records, active means well fitted inhibition curve with a large enough effect in the signal ratio, with a control signal flat (not every such curve was filed as active); inconclusive means small, poorly fitted or top-dose-only effect, or effect the other way, or a change in a side signal; inactive means flat fitted curve, though single readings scatter; the % refers to the signal ratio. A potency beside an inconclusive call is a rough fit, not a confirmed value.

Assay: qHTS Assay to Find Inhibitors of Chronic Active B-Cell Receptor Signaling;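 on activity change, negative = inhibition: plate controls were basal doxycycline-induced cells for no effect and cells given 10 µM MG132 for full effect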
Settings: ABC-DLBCL IkBa-CBG/CBR reporter, luminescence ratio (green luciferase fused to IkBa over red control in TMD8 lymphoma cells), 4 h; activity change, negative = inhibition: at 46.1 µM (top of the series)
How it was run: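 Cell line TMD8 (human ABC DLBCL), stably expressing tet-inducible CBG68-IkBa fusion and CBR; IMDM/0.5% FBS; cpd up to 46 uM; dox induction, 4 h, 37C/5% CO2; dual luminescence; green/red ratio; MG132 control.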
Potency means the concentration at half of the fitted maximal effect.

Compound	Potency	activity change, negative = inhibition
CC(=O)c1ccc2c(c1)Nc1ccccc1S2	inconclusive: 1.46 µM [rising, full curve, poor fit]	–
Cc1ccc(CNC(=O)CNC(=S)N(Cc2ccccc2)Cc2cccnc2)cc1	–	inactive: 3.1%
NC(=O)COC(=O)c1sc2ccccc2c1Cl	–	inactive: 8.23%
CC(C)C(=O)Nc1nc(-c2ccccc2)ns1	–	inconclusive: 15.2%
COc1ccc(CCNC(=O)CSc2nc(N)c3c(C)c(C)oc3n2)cc1OC	–	inconclusive: 0.292%
COc1ccc(S(=O)(=O)N2CCOCC2)cc1NC(=O)COC(=O)c1oc2ccccc2c1C	–	inactive: 5.91%
CCn1c(SCC(=O)Nc2ccccc2N2CCOCC2)nnc1-c1ccccc1	–	inconclusive: 3.68%
O=C1NC(C(=O)O)=CC(c2ccc([N+](=O)[O-])cc2)N1 (centres undefined)	–	inactive: -0.86%
Nc1ccc(C(=O)OCc2nc3c(ccc4ccccc43)[nH]2)cc1	inconclusive: 1.46 µM [falling, full curve, poor fit]	–
C=CCNC(=O)NC(=O)CN1C(=O)NC(c2ccccc2)(c2ccccc2)C1=O	–	inconclusive: -2.35%
COc1ccc(Br)cc1CNC(=O)C1CCN(C(=O)N(C)C)CC1	–	inconclusive: 5.81%
Cc1nnc(N(C)C(=O)c2ccc3c(c2)OCO3)s1	–	inactive: 2.7%
CCC(CC)NC(=O)c1ccc(NS(=O)(=O)c2ccc3[nH]c(=O)[nH]c3c2)cc1	–	inconclusive: -18.9%
COc1cc2c3nnc(-c4ccc(F)cc4)c-3cn(Cc3ccccc3F)c2cc1OC	inconclusive: 15.8 µM [rising, single point]	–
Cc1[nH]nc(SCC(=O)N2CCCCCC2)c1[N+](=O)[O-]	inconclusive: 25.1 µM [falling, partial curve]	–
C=CCN(c1ccc(C(=O)Nc2ccc3c(c2)OCO3)cc1)S(C)(=O)=O	–	inconclusive: 7.87%
Cc1[nH]n(-c2ccccc2)c(=O)c1N=Nc1ccccc1O	–	inconclusive: -0.403%
Cc1ccc(C2NC(=O)c3c(sc4c3CCN(C)C4)N2)o1 (centres undefined)	–	inactive: 3.13%
O=[N+]([O-])c1ccccc1/C=N/OCc1ccccc1	–	inconclusive: 5.49%
COC(=O)c1ccccc1NC(=O)CNc1cc(Cl)ccc1N1CCOCC1	–	inconclusive: -12%
CCN1CCN(S(=O)(=O)c2ccc(OC)c(NC(=O)c3ccccc3)c2)CC1	–	inactive: 1.84%
O=C(NC1CC1)c1c[nH]c2ccc(S(=O)(=O)Nc3cccc(C(F)(F)F)c3)cc2c1=O	–	inconclusive: -6.07%
CCCCn1c(=O)[nH]c(=O)c2c1nc(-c1cc3c(cc1Br)OCO3)n2C	–	inconclusive: 0.241%
CC1=CC(C)=Nc2ccc(C)cc2N1	–	inconclusive: 21.4% and inconclusive: 14.6%

2 entries from above, reformatted.
O=[N+]([O-])c1ccccc1/C=N/OCc1ccccc1
  activity change, negative = inhibition: inconclusive: 5.49%
COC(=O)c1ccccc1NC(=O)CNc1cc(Cl)ccc1N1CCOCC1
  activity change, negative = inhibition: inconclusive: -12%
